The values that follow come from PubChem BioAssay AID330 (DTP/NCI, 2004).

The list is a part of this screen's results and no random one: it gathers tests that were run many times, whatever their T/C, doses with no T/C, and many T/C values between a quarter and a half above the control. Further doses and runs are listed elsewhere. T/C gives the treated animals as a percentage of the vehicle group. Some doses have a count of surviving animals in place of a T/C: the source files T/C as zero there, which appears to mark a toxic dose or a test without result, not a measured value. Some doses without a T/C left all or most animals alive at the check, yet need not have been tolerated: the source hardly ever lists a survival T/C far under the control, and the zero likely stands for such cases as well. Survivors were counted at the toxicity check, usually on the fifth day, unless a day is given; later deaths do not show. Schedules are NCI's codes, read here as Q, the interval in days (D) or hours (H), X, the number of doses. Some entries hold several experiments; the values are given in rising order. Where survival is the endpoint, the PubChem record calls one and a half times the control and up active, and a quarter to a half above the control has no call in these data; cut-offs in other NCI protocols can differ. Some molecules as drawn cover several salts, stereoisomers or complexes of the source; a dose is that of the sample tested.

This test has as its system P388 leukemia ip, CD2F1 mice, survival T/C. Nature of the test: NCI In Vivo Anticancer Drug Screen. Data for tumor model P388 Leukemia (intraperitoneal) in CD2F1 (CDF1) mice. The following applies: T/C endpoint: median survival time, higher T/C = longer survival.
Where [1] appears, read: dose: 100.0 mg/kg/injection, schedule: Q01DX009 (ip), vehicle: water.
Setting [2] is: dose: 240.0 mg/kg/injection, schedule: Q01DX005 (ip), vehicle: Klucel (hydroxypropylcellulose) (HPC).
Where [3] appears, read: dose: 240.0 mg/kg/injection, schedule: Q01DX005 (ip), vehicle: saline with Tween-80.
The mark [4] stands for this setting: dose: 200.0 mg/kg/injection, schedule: Q01DX005 (ip), vehicle: saline with Tween-80.
The mark [5] stands for this setting: dose: 50.0 mg/kg/injection, schedule: Q01DX005 (ip), vehicle: saline with Tween-80.
[6] abbreviates: dose: 100.0 mg/kg/injection, schedule: Q01DX005 (ip), vehicle: saline with Tween-80.
The mark [7] stands for this setting: dose: 100.0 mg/kg/injection, schedule: Q01DX005 (ip), vehicle: saline.
The mark [8] stands for this setting: dose: 25.0 mg/kg/injection, schedule: Q01DX009 (ip), vehicle: Klucel (hydroxypropylcellulose) (HPC).
[9] abbreviates: dose: 400.0 mg/kg/injection, schedule: Q04DX003 (ip), vehicle: saline with Tween-80.

`COc1cc2ccc3c[n+](C)ccc3c2cc1OC`: the T/C reads like this: (dose: 12.5 mg/kg/injection, schedule: Q01DX009 (ip), vehicle: water) 125 % of control; (dose: 50.0 mg/kg/injection, schedule: Q01DX009 (ip), vehicle: other) 132 % of control; (dose: 50.0 mg/kg/injection, schedule: Q01DX009 (ip), vehicle: water) 125 and 129 % of control; (dose: 100.0 mg/kg/injection, schedule: Q01DX009 (ip), vehicle: other) 135 % of control; under setting [1], 137 % of control.

Consider `CC1(C)C[C@@]2(F)C(=O)NC(=O)N[C@@H]12`, for which the survivor count (dose: 100.0 mg/kg/injection, schedule: Q01DX001 (ip), vehicle: Klucel (hydroxypropylcellulose) (HPC)) is on record as 1 of 6; the survivor count (dose: 200.0 mg/kg/injection, schedule: Q01DX001 (ip), vehicle: Klucel (hydroxypropylcellulose) (HPC)) is reported as 0 of 6; the survivor count (dose: 400.0 mg/kg/injection, schedule: Q01DX001 (ip), vehicle: Klucel (hydroxypropylcellulose) (HPC)) is reported as 0 of 6.

For the molecule `S=C1NCC(c2ccc(Cl)cc2)[Se]1` (configuration not stated), the survivor count (dose: 200.0 mg/kg/injection, schedule: Q01DX009 (ip), vehicle: DMSO) is listed as 2 of 6.

`COc1cc(NS(C)(=O)=O)ccc1Nc1c2ccc(N(C)C)cc2nc2cc(N(C)C)ccc12`: the survivor count (dose: 60.0 mg/kg/injection, schedule: Q01DX005 (ip), vehicle: Klucel (hydroxypropylcellulose) (HPC)) is recorded as 4 of 6; the survivor count (dose: 120.0 mg/kg/injection, schedule: Q01DX005 (ip), vehicle: Klucel (hydroxypropylcellulose) (HPC)) was 6 of 6; the survivor count under setting [2] was 2 of 6.

`CCCCCC(CN(C)C)C(=O)CC(SCC)c1ccc(Cl)c(Cl)c1` (configuration not stated): the survivor count by setting is: under setting [1], 3 of 6; (dose: 200.0 mg/kg/injection, schedule: Q01DX009 (ip), vehicle: water) 0 of 6.

For the molecule `CC(C)NC(=O)OCc1c(COC(=O)NC(C)C)c(-c2ccc(Cl)c(Cl)c2)n2c1CS(=O)C2` (configuration not stated), the survivor count (dose: 25.0 mg/kg/injection, schedule: Q01DX005 (ip), vehicle: Klucel + Tween-80) was 6 of 6; the survivor count (dose: 50.0 mg/kg/injection, schedule: Q01DX005 (ip), vehicle: Klucel + Tween-80) is reported as 6 of 6; the survivor count (dose: 100.0 mg/kg/injection, schedule: Q01DX005 (ip), vehicle: Klucel + Tween-80) is 6 of 6; the survivor count (dose: 200.0 mg/kg/injection, schedule: Q01DX005 (ip), vehicle: Klucel + Tween-80) was 2 of 6; the survivor count (dose: 400.0 mg/kg/injection, schedule: Q01DX005 (ip), vehicle: Klucel + Tween-80) is 3 of 6.

As for `S=C(SSC(=S)N1CCOCC1)N1CCOCC1`, under setting [3], the survivor count was 3 of 6.

With `CCCCCCCCCCCC(=O)c1c(O)c2ccccc2oc1=O`, the survivor count under setting [4] is reported as 3 of 6.

With `C#CCN1CCN(C(=S)N/N=C(\C)c2ccccn2)CC1`, the T/C under setting [5] is 127 % of control. In addition, the survivor count under setting [6] is given as 0 of 6 and the survivor count under setting [4] is 0 of 6.

On to `C=C1C[C@@H](O)[C@H](O)[C@@]2(C)C[C@@H]3OC(=O)C(=C)[C@@H]3C[C@H]12`, for which the T/C (dose: 25.0 mg/kg/injection, schedule: Q01DX009 (ip), vehicle: saline) was 125 % of control.

With `COCC1(O)C=CC(=O)O1` (configuration not stated), the T/C (dose: 50.0 mg/kg/injection, schedule: Q01DX005 (ip), vehicle: saline) is 125 % of control and the T/C under setting [7] is 133 % of control. Moreover, the survivor count is 3 of 6 under setting [7]; 0 of 6 and 3 of 6 (dose: 200.0 mg/kg/injection, schedule: Q01DX005 (ip), vehicle: saline).

`CCN1/C(=C/C=C2\CCC(/C=C/c3sc4ccc(Cl)cc4[n+]3CC)=C2N(c2ccccc2)c2ccccc2)Sc2ccc(Cl)cc21`: the T/C runs as follows: (dose: 12.5 mg/kg/injection, schedule: Q01DX009 (ip), vehicle: Klucel (hydroxypropylcellulose) (HPC)) 128 and 137 % of control; under setting [8], 128 % of control. Also, the survivor count by setting is: under setting [8], 6 of 6; (dose: 50.0 mg/kg/injection, schedule: Q01DX009 (ip), vehicle: Klucel (hydroxypropylcellulose) (HPC)) 2 of 6.

As for `CN(C)CC(C(=O)/C=C/c1ccccc1)C(C)(C)C` (configuration not stated), the survivor count (dose: 240.0 mg/kg/injection, schedule: Q01DX005 (ip), vehicle: saline) is given as 3 of 6.

Take `O=C(O)c1ccc(N2C(=O)C3C4CCC(O4)C3C2=O)cc1` (configuration not stated): the survivor count is, setting by setting: (dose: 25.0 mg/kg/injection, schedule: Q01DX005 (ip), vehicle: saline with Tween-80) 3 of 6; under setting [5], 3 of 6; under setting [6], 0 of 6; under setting [4], 0 of 6.

On to `C=C(CN(C)C)C(=O)c1ccc(OC)cc1OC`, for which the survivor count (dose: 12.5 mg/kg/injection, schedule: Q04DX002 (ip), vehicle: saline) is 1 of 6 and 4 of 6; the survivor count (dose: 25.0 mg/kg/injection, schedule: Q04DX002 (ip), vehicle: saline) is listed as 0 of 6; the survivor count (dose: 50.0 mg/kg/injection, schedule: Q04DX002 (ip), vehicle: saline) is given as 0 of 6; the survivor count (dose: 100.0 mg/kg/injection, schedule: Q04DX002 (ip), vehicle: saline) is recorded as 0 of 6; the survivor count (dose: 200.0 mg/kg/injection, schedule: Q04DX002 (ip), vehicle: saline) is reported as 0 of 6; the survivor count (dose: 400.0 mg/kg/injection, schedule: Q04DX002 (ip), vehicle: saline) is 0 of 6.

With `Cc1ccc(S(=O)(=O)N=P(c2ccccc2)(c2ccccc2)c2ccccc2)cc1`, the survivor count (dose: 400.0 mg/kg/injection, schedule: Q01DX009 (ip), vehicle: saline with Tween-80) is listed as 6 of 6.

For `CCn1c2ccc(N)cc2c2c3ncc4cccn4c3ccc21`, the survivor count under setting [3] is recorded as 6 of 6.

On to `COSc1ccc(OC)cc1`, for which the survivor count (dose: 400.0 mg/kg/injection, schedule: Q04DX003 (ip), vehicle: saline) was 4 of 6.

Take `CCCCN(CCCC)C(Cl)=NCCC`: the survivor count (dose: 200.0 mg/kg/injection, schedule: Q01DX009 (ip), vehicle: Klucel (hydroxypropylcellulose) (HPC)) is on record as 4 of 6.

Consider `N#CN(Cc1ccccc1)Cc1ccccc1.[Cl][Sn]([c]1ccccc1)([c]1ccccc1)[c]1ccccc1`, for which the survivor count reads like this: (dose: 12.5 mg/kg/injection, schedule: Q01DX005 (ip), vehicle: saline with Tween-80) 0 of 6; under setting [5], 0 of 6; under setting [6], 0 of 6; under setting [4], 0 of 6.

Turning to `COC(=O)C(=O)c1c(C2CC2)[nH]c2[nH]n(-c3ccccc3)c(=O)c2c1=O`, the survivor count under setting [3] is reported as 0 of 6.

As for `COC(=O)C1CCC[P+]1(C)C` (configuration not stated), the survivor count (dose: 200.0 mg/kg/injection, schedule: Q01DX001 (ip), vehicle: saline) is given as 6 of 6.

`CCCCCCCCC(O)C#CC(O)CCCCCCCC` (configuration not stated): the survivor count under setting [4] is 5 of 6.

In the case of `COc1ccc(S(N)(=O)=O)cc1C(=O)NCCN1CCN(c2cccc(C(F)(F)F)c2)CC1`, the survivor count (dose: 200.0 mg/kg/injection, schedule: Q01DX005 (ip), vehicle: Klucel (hydroxypropylcellulose) (HPC)) is 5 of 6.

As to `C[CH2][GeH][CH2]C.C[CH2][Ge]([CH2]C)[CH2]C`, the survivor count (dose: 200.0 mg/kg/injection, schedule: Q01DX009 (ip), vehicle: saline) is on record as 0 of 6.

For `C[n+]1c2ccccc2c(Nc2ccc(NS(=O)(=O)CCCCN=C(N)N)cc2)c2ccc(N)cc21`, the T/C (dose: 6.0 mg/kg/injection, schedule: Q01DX005 (ip), vehicle: Klucel (hydroxypropylcellulose) (HPC)) is 144 % of control.

On to `O=C1Cc2ccccc2C(=O)N1`, for which the survivor count under setting [9] was 3 of 6.

As for `Nc1nc(-c2ccccn2)cc(-c2cc(-c3ccccn3)nc(N)n2)n1`, the survivor count under setting [2] is 0 of 6.

With `CN(C)Cc1[nH]c2ccccc2c1Sc1ccccc1`, the survivor count under setting [3] was 3 of 6.

Turning to `OC(CC1(O)C(F)(F)C(F)(F)C1(F)F)c1ccccc1` (configuration not stated), the survivor count under setting [9] is on record as 4 of 6.
